Measurements published in the supplement of paper PMC12823440, “Inhibitors supercharge kinase turnover through native proteolytic circuits” (Nature, 2025).
The other results are listed elsewhere or left out. Hit calls seldom repeat between salt and free forms of one compound.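 Kinases, fused to nanoluciferase, were expressed in K562 cells; luminescence was measured every 4 h from 2 to 18 h as percent of control (DMSO = 100%, positive control = 0%). A time point is decreased if signal falls significantly (2 sigma). Hits were called by the authors by a rule that is not shown; the count of time points alone does not decide it.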

Target: EGFR (UniProt P00533)
Assay: kinase-Nluc reporter destabilization hit call (1 = scored as downregulated) (binary); higher = compound decreases kinase abundance
Conditions: 2.5 µM; K562; 2-18 h

kinase-Nluc reporter destabilization hit call, inactive:
Cc1cn(-c2cc(NC(=O)c3ccc(C)c(Nc4nccc(-c5cccnc5)n4)c3)cc(C(F)(F)F)c2)cn1 [Nilotinib] 0
COc1cc(Nc2c(C#N)cnc3cc(OCCCN4CCN(C)CC4)c(OC)cc23)c(Cl)cc1Cl [Bosutinib] 0
CCc1cc2c(cc1-c1cnn(CC(=O)N(C)C)c1)C(C)(C)c1[nH]c3cc(C#N)ccc3c1C2=O 0
COc1cc(N2CCC(N3CCN(C)CC3)CC2)ccc1Nc1ncc(Cl)c(Nc2ccccc2S(=O)(=O)C(C)C)n1 0

Same assay, conditions: 10 µM; K562; 2-18 h

kinase-Nluc reporter destabilization hit call, inactive:
C[C@@]1(C(=O)Nc2ccc(F)nc2)CCCN1c1nc(Nc2cc(C3CC3)n[nH]2)c2cccn2n1 0
Cc1ccc(-n2nc(C(C)(C)C)cc2NC(=O)Nc2ccc(OCCN3CCOCC3)c3ccccc23)cc1 [Doramapimod] 0
O=C(O)c1ccc(Nc2ncc3c(n2)-c2ccc(Cl)cc2C(c2c(F)cccc2F)=NC3)cc1 0
N#CC(=Cc1cc(Cl)cc(Cl)c1)c1cccnc1 0
O=C(NCCCNc1nc(Nc2cccc(CN3CCOCC3)c2)ncc1C1CC1)C1CCC1 0

Target: EGFR_G719S (UniProt P00533)
Assay: as above
Conditions: 2.5 µM; K562; 2-18 h

kinase-Nluc reporter destabilization hit call, inactive:
Cc1cn(-c2cc(NC(=O)c3ccc(C)c(Nc4nccc(-c5cccnc5)n4)c3)cc(C(F)(F)F)c2)cn1 [Nilotinib] 0
COc1cc(Nc2c(C#N)cnc3cc(OCCCN4CCN(C)CC4)c(OC)cc23)c(Cl)cc1Cl [Bosutinib] 0
CCc1cc2c(cc1-c1cnn(CC(=O)N(C)C)c1)C(C)(C)c1[nH]c3cc(C#N)ccc3c1C2=O 0
COc1cc(N2CCC(N3CCN(C)CC3)CC2)ccc1Nc1ncc(Cl)c(Nc2ccccc2S(=O)(=O)C(C)C)n1 0

Same assay, conditions: 10 µM; K562; 2-18 h

kinase-Nluc reporter destabilization hit call, inactive:
C[C@@]1(C(=O)Nc2ccc(F)nc2)CCCN1c1nc(Nc2cc(C3CC3)n[nH]2)c2cccn2n1 0
Cc1ccc(-n2nc(C(C)(C)C)cc2NC(=O)Nc2ccc(OCCN3CCOCC3)c3ccccc23)cc1 [Doramapimod] 0
O=C(O)c1ccc(Nc2ncc3c(n2)-c2ccc(Cl)cc2C(c2c(F)cccc2F)=NC3)cc1 0
N#CC(=Cc1cc(Cl)cc(Cl)c1)c1cccnc1 0
O=C(NCCCNc1nc(Nc2cccc(CN3CCOCC3)c2)ncc1C1CC1)C1CCC1 0
